Data as given in PubChem BioAssay AID1259425 (University of Nebraska Medical Center, 2018)

- Screen: 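Seek colon cancer weak points whose silencing resembles KSR1 loss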 (primary screen)
- Cells: HCT116 human colon cancer cells
- Reagents: siRNA pool against human genes, 50 nM siRNA
- Measurement: 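mRNA of six signature genes measured together by branched-DNA assay after 50 nM siRNA pool, blank removed, divided by geometric mean of two housekeeping genes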
- Reading the numbers: BNIP3L mRNA: higher = more BNIP3L transcript after knockdown; NDRG1 mRNA: higher = more NDRG1 transcript after knockdown; BNIP3 mRNA: higher = more BNIP3 transcript after knockdown; ALDOC mRNA: higher = more ALDOC transcript after knockdown; ACSL5 mRNA: higher = more ACSL5 transcript after knockdown
This is one part, drawn at random, of about 14,000 reagents tested. Reagent sequences are not shown. The record does not give: the time to read-out.

gene symbol,"BNIP3L mRNA, set 1","NDRG1 mRNA, set 1","BNIP3 mRNA, set 1","ALDOC mRNA, set 1","ACSL5 mRNA, set 1"
GFRA1 (GDNF family receptor alpha 1),0.102,0.136,0.263,0.047,0.145
RBMS2 (RNA binding motif single stranded interacting protein 2),0.0746,0.155,0.299,0.0178,0.133
H3C11 (H3 clustered histone 11),0.0606,0.123,0.295,0.0105,0.129
"ERCC1 (ERCC excision repair 1, endonuclease non-catalytic subunit)",0.127,0.698,0.262,0.0118,0.273
MRPL40 (mitochondrial ribosomal protein L40),0.305,0.273,1.29,0.0944,0.14
WDR18 (WD repeat domain 18),0.174,0.931,0.336,0.0534,0.751
FEM1B (fem-1 homolog B),0.0531,0.0718,0.214,0.0245,0.157
ADAMTS20 (ADAM metallopeptidase with thrombospondin type 1 motif 20),0.0777,0.182,0.18,0.0151,0.172
ATG2A (autophagy related 2A),0.246,0.122,0.256,0.0396,0.216
ZNF398 (zinc finger protein 398),0.0864,0.101,0.261,-0.000837,0.143
"ACTA1 (actin alpha 1, skeletal muscle)",0.0973,0.558,0.284,0.0245,0.16
REG1A (regenerating family member 1 alpha),0.102,0.189,0.161,0.0467,0.182
LYRM1 (LYR motif containing 1),0.112,0.216,0.205,0.0152,0.208
NKRF (NFKB repressing factor),0.0949,0.292,0.0938,0.0167,0.241
ZNF177 (zinc finger protein 177),0.182,0.326,0.333,0.0573,0.149
POU2F3 (POU class 2 homeobox 3),0.161,0.14,0.538,0.0314,0.095
TIGD6 (tigger transposable element derived 6),0.158,0.841,0.373,0.0533,0.247
SEMA4B (semaphorin 4B),0.15,0.542,0.413,0.0603,0.23
NOX3 (NADPH oxidase 3),0.0605,0.42,0.278,0.00778,0.163
ARHGAP25 (Rho GTPase activating protein 25),0.0459,0.167,0.189,0.0415,0.172
NVL (nuclear VCP like),0.103,0.231,0.307,0.0546,0.117
"BCAR3 (BCAR3 adaptor protein, NSP family member)",0.129,0.0645,0.198,0.0268,0.136
SCARF2 (scavenger receptor class F member 2),0.0884,0.153,0.262,0.0228,0.112
PMS2P2,0.102,0.813,0.284,0.0242,0.242
FPR1 (formyl peptide receptor 1),0.151,0.142,0.386,0.0282,0.105
CACNA1H (calcium voltage-gated channel subunit alpha1 H),0.159,0.272,0.194,0.0203,0.14
TEAD3 (TEA domain transcription factor 3),0.108,0.138,0.175,0.00867,0.209
SLC9A3-OT1 (SLC9A3 3' UTR overlapping transcript 1),0.0943,0.0828,0.241,0.0201,0.0931
PANK3 (pantothenate kinase 3),0.135,0.082,0.427,0.0132,0.139
RAPGEF4 (Rap guanine nucleotide exchange factor 4),0.0851,0.0772,0.258,0.00689,0.148
UVSSA (UV stimulated scaffold protein A),0.0887,0.316,0.468,0.0387,0.13
APBB3 (amyloid beta precursor protein binding family B member 3),0.115,0.142,0.512,0.0189,0.255
YARS1 (tyrosyl-tRNA synthetase 1),0.0909,0.217,0.254,0.04,0.13
SLC6A2,0.243,0.489,0.219,0.00524,0.234

Quoted from the entries so far (5 entries):
gene symbol,"BNIP3L mRNA, set 1","NDRG1 mRNA, set 1","BNIP3 mRNA, set 1","ALDOC mRNA, set 1","ACSL5 mRNA, set 1"
ARHGAP25 (Rho GTPase activating protein 25),0.0459,0.167,0.189,0.0415,0.172
NVL (nuclear VCP like),0.103,0.231,0.307,0.0546,0.117
"BCAR3 (BCAR3 adaptor protein, NSP family member)",0.129,0.0645,0.198,0.0268,0.136
SCARF2 (scavenger receptor class F member 2),0.0884,0.153,0.262,0.0228,0.112
PMS2P2,0.102,0.813,0.284,0.0242,0.242
